Some of the results follow.
How the values were obtained:
Experiment in all cases: log2 fold change, soluble protein after heating vs DMSO (PISA); higher = thermal stabilisation; K562 cells, 10 uM, 30 min; active = over 0.2 and 3.5 SD of the protein, either way, in both replicates (recomputed)
[1] = compound: COC1=CC=C(C=C1)CN2C=CC3=C2C=C(C=C3)C(=O)NO
Method in brief: (§1)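 K562 cells at 2×10^6 cells/mL were treated with 10 μM compound for 30 min. Aliquots were heated for 3 min across 48°C-58°C, pooled, and extracted in PBS with 0.5% NP-40 at 4°C; soluble protein was the supernatant after 21,000xg for 90 min. Soluble protein was quantified by TMTpro 16plex LC-MS/MS with channel sums equalised, and reported as log2 fold change in thermal stability against DMSO controls, with values from duplicates.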

By UniProt entry, the sequences of proteins in these tests, tags left out. Where a name states a change or a piece, a line headed by the entry shows the natural chain unless it says otherwise.
UniProt Q8N4V1: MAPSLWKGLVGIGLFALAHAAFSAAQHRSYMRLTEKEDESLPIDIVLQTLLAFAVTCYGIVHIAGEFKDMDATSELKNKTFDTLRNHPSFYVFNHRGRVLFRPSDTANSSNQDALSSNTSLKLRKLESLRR
UniProt Q9HC36: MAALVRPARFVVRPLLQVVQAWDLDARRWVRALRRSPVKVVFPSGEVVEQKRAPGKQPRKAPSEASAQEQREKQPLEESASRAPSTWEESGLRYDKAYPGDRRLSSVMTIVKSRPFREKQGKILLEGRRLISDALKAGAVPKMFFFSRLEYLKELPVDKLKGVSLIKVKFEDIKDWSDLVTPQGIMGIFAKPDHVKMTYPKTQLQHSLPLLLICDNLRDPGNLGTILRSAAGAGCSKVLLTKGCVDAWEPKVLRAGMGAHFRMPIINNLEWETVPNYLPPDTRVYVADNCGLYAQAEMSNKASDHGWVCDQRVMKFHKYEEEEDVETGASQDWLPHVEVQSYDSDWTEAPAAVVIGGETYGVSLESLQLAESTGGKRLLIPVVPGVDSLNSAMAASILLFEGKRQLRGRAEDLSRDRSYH
UniProt A9UHW6: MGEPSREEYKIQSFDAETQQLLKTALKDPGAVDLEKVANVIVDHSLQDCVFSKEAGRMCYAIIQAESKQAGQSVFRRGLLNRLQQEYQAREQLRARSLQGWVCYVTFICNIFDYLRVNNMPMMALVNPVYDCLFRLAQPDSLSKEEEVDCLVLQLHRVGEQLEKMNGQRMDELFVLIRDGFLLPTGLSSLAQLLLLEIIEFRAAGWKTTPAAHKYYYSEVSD
UniProt O95563: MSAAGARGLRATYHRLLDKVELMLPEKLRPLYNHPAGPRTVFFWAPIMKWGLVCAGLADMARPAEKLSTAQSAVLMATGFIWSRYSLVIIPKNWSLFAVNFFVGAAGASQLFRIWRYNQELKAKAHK
UniProt P46013: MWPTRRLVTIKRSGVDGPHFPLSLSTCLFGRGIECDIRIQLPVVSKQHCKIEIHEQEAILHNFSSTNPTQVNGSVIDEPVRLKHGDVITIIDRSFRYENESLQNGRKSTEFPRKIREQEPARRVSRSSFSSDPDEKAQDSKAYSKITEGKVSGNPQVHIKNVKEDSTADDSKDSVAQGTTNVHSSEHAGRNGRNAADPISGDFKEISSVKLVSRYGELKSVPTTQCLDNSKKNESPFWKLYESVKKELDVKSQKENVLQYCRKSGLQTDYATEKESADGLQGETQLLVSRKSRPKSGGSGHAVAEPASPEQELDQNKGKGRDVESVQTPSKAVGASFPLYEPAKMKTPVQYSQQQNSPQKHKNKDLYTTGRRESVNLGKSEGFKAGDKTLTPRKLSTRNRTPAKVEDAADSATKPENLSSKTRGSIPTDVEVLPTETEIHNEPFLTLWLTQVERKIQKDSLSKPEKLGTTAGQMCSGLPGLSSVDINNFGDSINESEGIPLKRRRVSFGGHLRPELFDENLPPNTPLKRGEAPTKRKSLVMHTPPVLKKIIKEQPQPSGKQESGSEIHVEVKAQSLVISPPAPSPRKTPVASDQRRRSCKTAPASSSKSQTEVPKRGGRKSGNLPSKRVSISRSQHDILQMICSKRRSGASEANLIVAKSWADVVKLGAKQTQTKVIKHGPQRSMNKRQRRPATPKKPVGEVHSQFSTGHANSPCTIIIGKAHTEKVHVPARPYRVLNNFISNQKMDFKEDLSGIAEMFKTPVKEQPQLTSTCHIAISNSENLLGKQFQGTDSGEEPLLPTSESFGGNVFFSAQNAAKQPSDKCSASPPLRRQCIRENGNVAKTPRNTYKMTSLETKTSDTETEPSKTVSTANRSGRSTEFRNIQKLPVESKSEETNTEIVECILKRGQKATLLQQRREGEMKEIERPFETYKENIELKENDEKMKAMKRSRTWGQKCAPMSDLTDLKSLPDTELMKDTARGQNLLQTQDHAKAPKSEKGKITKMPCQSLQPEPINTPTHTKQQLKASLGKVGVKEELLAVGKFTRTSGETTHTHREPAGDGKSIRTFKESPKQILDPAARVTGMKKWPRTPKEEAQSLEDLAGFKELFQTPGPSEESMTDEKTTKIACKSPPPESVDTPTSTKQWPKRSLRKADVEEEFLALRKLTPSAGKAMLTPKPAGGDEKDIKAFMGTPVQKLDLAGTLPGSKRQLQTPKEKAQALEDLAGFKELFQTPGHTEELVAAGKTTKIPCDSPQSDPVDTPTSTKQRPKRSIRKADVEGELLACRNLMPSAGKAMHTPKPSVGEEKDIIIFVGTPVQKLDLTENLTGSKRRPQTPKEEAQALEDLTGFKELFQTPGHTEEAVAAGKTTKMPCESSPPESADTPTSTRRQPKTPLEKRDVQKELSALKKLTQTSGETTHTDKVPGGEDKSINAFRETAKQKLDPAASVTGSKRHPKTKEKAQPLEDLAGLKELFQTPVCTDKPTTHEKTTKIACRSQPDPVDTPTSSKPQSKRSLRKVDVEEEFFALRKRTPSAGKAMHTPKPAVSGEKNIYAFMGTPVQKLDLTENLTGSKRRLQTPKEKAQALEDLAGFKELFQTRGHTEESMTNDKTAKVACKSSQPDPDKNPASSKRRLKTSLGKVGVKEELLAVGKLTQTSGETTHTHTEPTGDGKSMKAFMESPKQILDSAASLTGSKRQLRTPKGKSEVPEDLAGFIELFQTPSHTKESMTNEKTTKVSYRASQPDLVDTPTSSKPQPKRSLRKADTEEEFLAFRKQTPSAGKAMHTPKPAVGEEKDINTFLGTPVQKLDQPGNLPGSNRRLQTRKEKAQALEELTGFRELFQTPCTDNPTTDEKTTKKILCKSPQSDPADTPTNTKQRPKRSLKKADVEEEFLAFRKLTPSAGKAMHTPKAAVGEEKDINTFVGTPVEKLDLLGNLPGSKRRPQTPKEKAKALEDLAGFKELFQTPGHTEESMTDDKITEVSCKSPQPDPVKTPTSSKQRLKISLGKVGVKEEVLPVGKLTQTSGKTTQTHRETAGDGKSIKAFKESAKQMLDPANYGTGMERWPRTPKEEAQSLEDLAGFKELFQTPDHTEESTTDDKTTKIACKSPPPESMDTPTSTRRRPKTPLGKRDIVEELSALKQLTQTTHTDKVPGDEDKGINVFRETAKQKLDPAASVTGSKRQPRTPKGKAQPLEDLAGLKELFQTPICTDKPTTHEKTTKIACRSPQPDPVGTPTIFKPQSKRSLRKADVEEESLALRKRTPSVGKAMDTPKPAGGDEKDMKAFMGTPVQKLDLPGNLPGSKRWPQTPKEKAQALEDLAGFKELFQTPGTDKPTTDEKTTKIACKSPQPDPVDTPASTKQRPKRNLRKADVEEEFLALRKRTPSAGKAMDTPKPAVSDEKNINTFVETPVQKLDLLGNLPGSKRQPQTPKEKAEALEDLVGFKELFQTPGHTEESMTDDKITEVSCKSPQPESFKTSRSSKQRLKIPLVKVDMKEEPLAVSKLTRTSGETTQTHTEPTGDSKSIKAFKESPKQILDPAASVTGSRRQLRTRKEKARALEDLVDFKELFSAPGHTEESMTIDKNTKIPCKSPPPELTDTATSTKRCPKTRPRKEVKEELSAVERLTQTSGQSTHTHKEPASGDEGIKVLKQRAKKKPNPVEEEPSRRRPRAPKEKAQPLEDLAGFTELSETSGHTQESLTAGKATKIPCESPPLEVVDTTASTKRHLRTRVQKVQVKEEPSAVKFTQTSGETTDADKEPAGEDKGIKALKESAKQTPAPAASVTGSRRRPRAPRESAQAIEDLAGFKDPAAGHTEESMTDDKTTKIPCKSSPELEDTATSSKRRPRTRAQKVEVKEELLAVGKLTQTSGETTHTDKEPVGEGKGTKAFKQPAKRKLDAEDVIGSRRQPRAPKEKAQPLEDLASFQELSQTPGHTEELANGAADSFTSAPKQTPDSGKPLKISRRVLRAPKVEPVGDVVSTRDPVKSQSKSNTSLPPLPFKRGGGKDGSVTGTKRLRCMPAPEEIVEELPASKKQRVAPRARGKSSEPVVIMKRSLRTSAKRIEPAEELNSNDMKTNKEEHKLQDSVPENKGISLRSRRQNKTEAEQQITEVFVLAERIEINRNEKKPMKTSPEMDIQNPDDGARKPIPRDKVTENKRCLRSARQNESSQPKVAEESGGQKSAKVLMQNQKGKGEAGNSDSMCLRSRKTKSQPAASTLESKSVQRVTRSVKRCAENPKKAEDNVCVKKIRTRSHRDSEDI
UniProt Q9UNW1: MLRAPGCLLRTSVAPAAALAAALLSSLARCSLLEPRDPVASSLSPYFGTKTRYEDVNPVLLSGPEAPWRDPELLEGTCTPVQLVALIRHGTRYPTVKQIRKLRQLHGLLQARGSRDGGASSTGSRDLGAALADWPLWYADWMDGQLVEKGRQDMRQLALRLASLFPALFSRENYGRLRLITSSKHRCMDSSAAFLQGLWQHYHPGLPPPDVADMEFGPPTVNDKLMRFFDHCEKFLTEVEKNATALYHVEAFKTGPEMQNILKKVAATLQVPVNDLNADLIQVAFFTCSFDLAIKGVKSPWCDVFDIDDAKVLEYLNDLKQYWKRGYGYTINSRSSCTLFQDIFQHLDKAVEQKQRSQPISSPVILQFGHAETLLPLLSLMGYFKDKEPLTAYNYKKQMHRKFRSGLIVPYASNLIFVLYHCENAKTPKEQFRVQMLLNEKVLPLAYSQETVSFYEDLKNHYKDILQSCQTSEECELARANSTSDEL

filanesib = compound: CON(C)C(=O)N1N=C(c2cc(F)ccc2F)S[C@@]1(CCCN)c1ccccc1 [filanesib]
Method in brief: as §1

zotarolimus = compound: CO[C@H]1C[C@@H]2CC[C@@H](C)[C@@](O)(O2)C(=O)C(=O)N2CCCC[C@H]2C(=O)O[C@H]([C@H](C)C[C@@H]2CC[C@H](n3cnnn3)[C@H](OC)C2)CC(=O)[C@H](C)/C=C(\C)[C@@H](O)[C@@H](OC)C(=O)[C@H](C)C[C@H](C)/C=C/C=C/C=C/1C [zotarolimus]
Method in brief: as §1

idasanutlin = compound: COc1cc(C(=O)O)ccc1NC(=O)[C@@H]1N[C@@H](CC(C)(C)C)[C@](C#N)(c2ccc(Cl)cc2F)[C@H]1c1cccc(Cl)c1F [idasanutlin]
Method in brief: as §1

alisertib = compound: COc1cc(Nc2ncc3c(n2)-c2ccc(Cl)cc2C(c2c(F)cccc2OC)=NC3)ccc1C(=O)O [alisertib]
Method in brief: as §1

[2] = compound: COc1cc2nc(-c3cc(F)ccc3O)nc(N[C@@H]3CNC[C@H]3C(C)(C)O)c2cc1OC
Method in brief: as §1

gefitinib = compound: COc1cc2ncnc(Nc3ccc(F)c(Cl)c3)c2cc1OCCCN1CCOCC1 [gefitinib]
Method in brief: as §1

[3] = compound: COc1cccc2cc(-c3nc([C@H]4CC[C@H](C(=O)O)CC4)n4ncnc(N)c34)[nH]c12
Method in brief: as §1

lapatinib = compound: CS(=O)(=O)CCNCc1ccc(-c2ccc3ncnc(Nc4ccc(OCc5cccc(F)c5)c(Cl)c4)c3c2)o1 [lapatinib]
Method in brief: as §1

pictilisib = compound: CS(=O)(=O)N1CCN(Cc2cc3nc(-c4cccc5[nH]ncc45)nc(N4CCOCC4)c3s2)CC1 [pictilisib]
Method in brief: as §1

[4] = compound: CS(=O)(=O)c1ccc(-c2cnc(N)c(C(=O)Nc3ccccc3)n2)cc1
Method in brief: as §1

crizotinib = compound: C[C@@H](Oc1cc(-c2cnn(C3CCNCC3)c2)cnc1N)c1c(Cl)ccc(F)c1Cl [crizotinib]
Method in brief: as §1

[5] = compound: C[C@@H]1COCCN1C2=NC(=NC(=C2)C3(CC3)S(=O)(=O)C)C4=C5C=CNC5=CC=C4
Method in brief: as §1

[6] = compound: C[C@H](C1=CC=C(C=C1)C(=O)NC2=C3C=CNC3=NC=C2)N
Method in brief: as §1

duvelisib = compound: C[C@H](Nc1ncnc2nc[nH]c12)c1cc2cccc(Cl)c2c(=O)n1-c1ccccc1 [duvelisib]
Method in brief: as §1

gandotinib = compound: Cc1cc(Nc2cc(CN3CCOCC3)c3nc(C)c(Cc4ccc(Cl)cc4F)n3n2)n[nH]1 [gandotinib]
Method in brief: as §1

tozasertib = compound: Cc1cc(Nc2cc(N3CCN(C)CC3)nc(Sc3ccc(NC(=O)C4CC4)cc3)n2)n[nH]1 [tozasertib]
Method in brief: as §1

[7] = compound: Cc1cc(SCc2sc(-c3ccc(C(F)(F)F)cc3)nc2C)ccc1OCC(=O)O
Method in brief: as §1

doramapimod = compound: Cc1ccc(-n2nc(C(C)(C)C)cc2NC(=O)Nc2ccc(OCCN3CCOCC3)c3ccccc23)cc1 [doramapimod]
Method in brief: as §1

ispinesib = compound: Cc1ccc(C(=O)N(CCCN)[C@@H](c2nc3cc(Cl)ccc3c(=O)n2Cc2ccccc2)C(C)C)cc1 [ispinesib]
Method in brief: as §1

Measured: log2 fold change

MRPL1 (UniProt Q9BYD6)
inactive: [1] -0.021 | filanesib 0.102 | zotarolimus 0.091 | idasanutlin 0.037 | alisertib 0.06 | [2] -0.03 | gefitinib -0.036 | [3] -0.055 | lapatinib 0.137 | pictilisib 0.023 | [4] -0.01 | crizotinib -0.018 | [5] -0.089 | [6] 0.259 | duvelisib -0.003 | gandotinib 0.043 | tozasertib 0.03 | [7] 0.18 | doramapimod 0.101 | ispinesib 0.127

MRPL30 isoform 2 (UniProt Q8TCC3)
inactive: [1] 0.089 | filanesib 0.248 | zotarolimus 0.14 | idasanutlin -0.011 | alisertib -0.056 | [2] -0.071 | gefitinib -0.051 | [3] -0.062 | lapatinib 0.174 | pictilisib -0.038 | [4] 0.072 | crizotinib 0.048 | [5] -0.1 | [6] 0.31 | duvelisib -0.1 | gandotinib 0.187 | tozasertib 0.016 | [7] 0.154 | doramapimod 0.073 | ispinesib -0.158

MMGT1 isoform 2 (UniProt Q8N4V1)
inactive: [1] 0.022 | filanesib -0.072 | zotarolimus 0.009 | idasanutlin -0.039 | alisertib 0.009 | [2] -0.073 | gefitinib -0.022 | [3] 0.074 | lapatinib 0.001 | pictilisib 0.015 | [4] -0.002 | crizotinib 0.066 | [5] 0.17 | [6] -0.021 | duvelisib 0.029 | gandotinib 0.003 | tozasertib 0 | [7] 0.003 | doramapimod 0.004 | ispinesib -0.016

MRM3 (UniProt Q9HC36)
inactive: [1] -0.25 | filanesib 0.486 | zotarolimus -0.001 | idasanutlin 0.117 | alisertib -0.092 | [2] -0.081 | gefitinib -0.035 | [3] -0.229 | lapatinib 0.163 | pictilisib -0.153 | [4] -0.052 | crizotinib 0.033 | [5] -0.4 | [6] 0.363 | duvelisib -0.114 | gandotinib 0.193 | tozasertib 0 | [7] 0.016 | doramapimod 0.26 | ispinesib 0

Pulled one by one from the list above (2):
MRPL1 (UniProt Q9BYD6)
inactive: [1] -0.021 | filanesib 0.102 | zotarolimus 0.091 | idasanutlin 0.037 | alisertib 0.06 | [2] -0.03 | gefitinib -0.036 | [3] -0.055 | lapatinib 0.137 | pictilisib 0.023 | [4] -0.01 | crizotinib -0.018 | [5] -0.089 | [6] 0.259 | duvelisib -0.003 | gandotinib 0.043 | tozasertib 0.03 | [7] 0.18 | doramapimod 0.101 | ispinesib 0.127

MRPL30 isoform 2 (UniProt Q8TCC3)
inactive: [1] 0.089 | filanesib 0.248 | zotarolimus 0.14 | idasanutlin -0.011 | alisertib -0.056 | [2] -0.071 | gefitinib -0.051 | [3] -0.062 | lapatinib 0.174 | pictilisib -0.038 | [4] 0.072 | crizotinib 0.048 | [5] -0.1 | [6] 0.31 | duvelisib -0.1 | gandotinib 0.187 | tozasertib 0.016 | [7] 0.154 | doramapimod 0.073 | ispinesib -0.158

(further entries)

MRPL41 (UniProt Q8IXM3)
inactive: [1] -0.075 | filanesib 0.213 | zotarolimus 0.083 | idasanutlin -0.085 | alisertib 0.093 | [2] -0.003 | gefitinib -0.135 | [3] -0.112 | lapatinib 0.145 | pictilisib 0.065 | [4] 0.007 | crizotinib 0.016 | [5] -0.052 | [6] 0.305 | duvelisib -0.159 | gandotinib 0.228 | tozasertib 0.024 | [7] 0.053 | doramapimod 0.121 | ispinesib -0.144

MRPL28 (UniProt Q13084)
inactive: [1] -0.038 | filanesib 0.159 | zotarolimus 0.158 | idasanutlin -0.098 | alisertib -0.023 | [2] -0.018 | gefitinib -0.047 | [3] -0.098 | lapatinib 0.108 | pictilisib -0.048 | [4] 0.031 | crizotinib 0.002 | [5] -0.039 | [6] 0.208 | duvelisib -0.033 | gandotinib 0.185 | tozasertib -0.092 | [7] 0.101 | doramapimod 0.072 | ispinesib -0.104

MRPL39 (UniProt Q9NYK5)
inactive: [1] -0.028 | filanesib 0.094 | zotarolimus 0.138 | idasanutlin -0.035 | alisertib -0.003 | [2] -0.132 | gefitinib -0.008 | [3] -0.039 | lapatinib 0.068 | pictilisib -0.067 | [4] 0.022 | crizotinib 0.046 | [5] -0.089 | [6] 0.248 | duvelisib -0.107 | gandotinib 0.141 | tozasertib 0.005 | [7] 0.056 | doramapimod 0.067 | ispinesib -0.02

MIF4GD isoform 3 (UniProt A9UHW6)
inactive: [1] -0.018 | filanesib 0.041 | zotarolimus 0.044 | idasanutlin -0.011 | alisertib -0.023 | [2] 0.038 | gefitinib -0.074 | [3] -0.014 | lapatinib 0.008 | pictilisib 0.088 | [4] 0.055 | crizotinib 0.076 | [5] 0.004 | [6] -0.093 | duvelisib 0.063 | gandotinib 0.067 | tozasertib -0.01 | [7] -0.027 | doramapimod 0.012 | ispinesib 0.083

MPC2 (UniProt O95563)
inactive: [1] -0.051 | filanesib -0.055 | zotarolimus -0.015 | idasanutlin -0.01 | alisertib 0.027 | [2] 0.003 | gefitinib 0.005 | [3] 0.024 | lapatinib 0.024 | pictilisib 0 | [4] -0.001 | crizotinib 0.021 | [5] 0.029 | [6] -0.047 | duvelisib 0.039 | gandotinib -0.04 | tozasertib -0.056 | [7] -0.035 | doramapimod 0.02 | ispinesib 0.006

MKI67 (UniProt P46013)
inactive: [1] -0.06 | filanesib 0.165 | zotarolimus -0.022 | idasanutlin 0.205 | alisertib -0.027 | [2] -0.117 | gefitinib 0.073 | [3] 0.02 | lapatinib 0.044 | pictilisib -0.141 | [4] -0.099 | crizotinib -0.097 | [5] -0.068 | [6] 0.263 | duvelisib -0.073 | gandotinib 0.091 | tozasertib -0.079 | [7] -0.021 | doramapimod 0.063 | ispinesib -0.163

MINPP1 (UniProt Q9UNW1)
inactive: [1] -0.049 | filanesib -0.001 | zotarolimus -0.043 | idasanutlin -0.001 | alisertib -0.106 | [2] -0.056 | gefitinib -0.024 | [3] 0.004 | lapatinib 0.072 | pictilisib -0.082 | [4] 0.013 | crizotinib 0.046 | [5] 0.001 | [6] -0.016 | duvelisib -0.004 | gandotinib -0.094 | tozasertib -0.017 | [7] -0.014 | doramapimod -0.015 | ispinesib 0.038

MRPL10 isoform 2 (UniProt Q7Z7H8)
inactive: [1] -0.043 | filanesib 0.188 | zotarolimus 0.033 | idasanutlin -0.08 | alisertib 0.047 | [2] -0.04 | gefitinib -0.06 | [3] -0.005 | lapatinib 0.031 | pictilisib -0.116 | [4] 0.051 | crizotinib 0.071 | [5] 0.07 | [6] 0.255 | duvelisib -0.055 | gandotinib 0.052 | tozasertib -0.008 | [7] 0.041 | doramapimod 0.104 | ispinesib -0.11

MRPL42 (UniProt Q9Y6G3)
inactive: [1] 0.023 | filanesib 0.198 | zotarolimus -0.075 | idasanutlin 0.012 | alisertib -0.008 | [2] -0.059 | gefitinib -0.063 | [3] 0.075 | lapatinib -0.085 | pictilisib -0.182 | [4] -0.13 | crizotinib -0.068 | [5] -0.21 | [6] 0.063 | duvelisib -0.085 | gandotinib -0.108 | tozasertib 0.021 | [7] -0.266 | doramapimod 0.025 | ispinesib -0.235

MRPL13 (UniProt Q9BYD1)
inactive: [1] -0.186 | filanesib 0.002 | zotarolimus 0.078 | idasanutlin -0.029 | alisertib -0.206 | [2] 0 | gefitinib -0.168 | [3] 0.017 | lapatinib 0.102 | pictilisib -0.073 | [4] 0.008 | crizotinib 0.058 | [5] -0.015 | [6] 0.232 | duvelisib -0.046 | gandotinib 0.102 | tozasertib 0.085 | [7] 0.034 | doramapimod 0.082 | ispinesib -0.051

MRPL51 (UniProt Q4U2R6)
inactive: [1] -0.1 | filanesib 0.212 | zotarolimus 0.056 | idasanutlin 0.086 | alisertib -0.081 | [2] -0.043 | gefitinib -0.088 | [3] -0.077 | lapatinib 0.153 | pictilisib -0.101 | [4] 0.053 | crizotinib -0.032 | [5] -0.141 | [6] 0.352 | duvelisib -0.134 | gandotinib 0.234 | tozasertib -0.052 | [7] 0.067 | doramapimod 0.086 | ispinesib -0.107

MRPL38 (UniProt Q96DV4)
inactive: [1] -0.097 | filanesib 0.205 | zotarolimus 0.101 | idasanutlin -0.008 | alisertib -0.085 | [2] 0.026 | gefitinib -0.075 | [3] -0.095 | lapatinib 0.137 | pictilisib -0.086 | [4] 0.028 | crizotinib 0.014 | [5] -0.125 | [6] 0.298 | duvelisib -0.138 | gandotinib 0.093 | tozasertib -0.017 | [7] 0.088 | doramapimod 0.138 | ispinesib -0.131
